Measured values taken from publication PMC8377418.
These are yes or no findings as the source states them, for the method shown. Some entries that bind do so weakly or less than the wild type.

Protein sequences, listed by entry. Tags and fused reporters are not part of them.
UniProt Q61221: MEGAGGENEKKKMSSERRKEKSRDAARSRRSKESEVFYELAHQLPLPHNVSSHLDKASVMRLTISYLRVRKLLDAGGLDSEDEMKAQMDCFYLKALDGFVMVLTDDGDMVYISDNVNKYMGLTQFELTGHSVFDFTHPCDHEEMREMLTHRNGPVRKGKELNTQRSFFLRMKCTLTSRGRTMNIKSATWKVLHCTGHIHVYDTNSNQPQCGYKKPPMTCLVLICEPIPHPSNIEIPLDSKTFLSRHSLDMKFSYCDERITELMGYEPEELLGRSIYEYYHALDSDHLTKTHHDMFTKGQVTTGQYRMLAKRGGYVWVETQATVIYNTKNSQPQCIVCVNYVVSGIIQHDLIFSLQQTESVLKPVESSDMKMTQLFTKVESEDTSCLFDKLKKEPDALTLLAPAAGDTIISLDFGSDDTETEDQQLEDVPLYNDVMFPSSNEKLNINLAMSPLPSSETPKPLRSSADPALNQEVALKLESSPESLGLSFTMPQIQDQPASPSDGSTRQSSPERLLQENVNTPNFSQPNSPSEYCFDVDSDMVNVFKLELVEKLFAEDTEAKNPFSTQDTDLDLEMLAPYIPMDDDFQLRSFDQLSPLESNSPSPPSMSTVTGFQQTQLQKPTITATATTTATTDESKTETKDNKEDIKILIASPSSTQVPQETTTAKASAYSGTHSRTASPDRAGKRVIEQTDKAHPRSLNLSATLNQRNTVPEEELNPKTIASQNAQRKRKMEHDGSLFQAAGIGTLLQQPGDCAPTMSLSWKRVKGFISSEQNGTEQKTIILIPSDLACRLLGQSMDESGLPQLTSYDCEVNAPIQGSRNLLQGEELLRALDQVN
UniProt Q3TKT4: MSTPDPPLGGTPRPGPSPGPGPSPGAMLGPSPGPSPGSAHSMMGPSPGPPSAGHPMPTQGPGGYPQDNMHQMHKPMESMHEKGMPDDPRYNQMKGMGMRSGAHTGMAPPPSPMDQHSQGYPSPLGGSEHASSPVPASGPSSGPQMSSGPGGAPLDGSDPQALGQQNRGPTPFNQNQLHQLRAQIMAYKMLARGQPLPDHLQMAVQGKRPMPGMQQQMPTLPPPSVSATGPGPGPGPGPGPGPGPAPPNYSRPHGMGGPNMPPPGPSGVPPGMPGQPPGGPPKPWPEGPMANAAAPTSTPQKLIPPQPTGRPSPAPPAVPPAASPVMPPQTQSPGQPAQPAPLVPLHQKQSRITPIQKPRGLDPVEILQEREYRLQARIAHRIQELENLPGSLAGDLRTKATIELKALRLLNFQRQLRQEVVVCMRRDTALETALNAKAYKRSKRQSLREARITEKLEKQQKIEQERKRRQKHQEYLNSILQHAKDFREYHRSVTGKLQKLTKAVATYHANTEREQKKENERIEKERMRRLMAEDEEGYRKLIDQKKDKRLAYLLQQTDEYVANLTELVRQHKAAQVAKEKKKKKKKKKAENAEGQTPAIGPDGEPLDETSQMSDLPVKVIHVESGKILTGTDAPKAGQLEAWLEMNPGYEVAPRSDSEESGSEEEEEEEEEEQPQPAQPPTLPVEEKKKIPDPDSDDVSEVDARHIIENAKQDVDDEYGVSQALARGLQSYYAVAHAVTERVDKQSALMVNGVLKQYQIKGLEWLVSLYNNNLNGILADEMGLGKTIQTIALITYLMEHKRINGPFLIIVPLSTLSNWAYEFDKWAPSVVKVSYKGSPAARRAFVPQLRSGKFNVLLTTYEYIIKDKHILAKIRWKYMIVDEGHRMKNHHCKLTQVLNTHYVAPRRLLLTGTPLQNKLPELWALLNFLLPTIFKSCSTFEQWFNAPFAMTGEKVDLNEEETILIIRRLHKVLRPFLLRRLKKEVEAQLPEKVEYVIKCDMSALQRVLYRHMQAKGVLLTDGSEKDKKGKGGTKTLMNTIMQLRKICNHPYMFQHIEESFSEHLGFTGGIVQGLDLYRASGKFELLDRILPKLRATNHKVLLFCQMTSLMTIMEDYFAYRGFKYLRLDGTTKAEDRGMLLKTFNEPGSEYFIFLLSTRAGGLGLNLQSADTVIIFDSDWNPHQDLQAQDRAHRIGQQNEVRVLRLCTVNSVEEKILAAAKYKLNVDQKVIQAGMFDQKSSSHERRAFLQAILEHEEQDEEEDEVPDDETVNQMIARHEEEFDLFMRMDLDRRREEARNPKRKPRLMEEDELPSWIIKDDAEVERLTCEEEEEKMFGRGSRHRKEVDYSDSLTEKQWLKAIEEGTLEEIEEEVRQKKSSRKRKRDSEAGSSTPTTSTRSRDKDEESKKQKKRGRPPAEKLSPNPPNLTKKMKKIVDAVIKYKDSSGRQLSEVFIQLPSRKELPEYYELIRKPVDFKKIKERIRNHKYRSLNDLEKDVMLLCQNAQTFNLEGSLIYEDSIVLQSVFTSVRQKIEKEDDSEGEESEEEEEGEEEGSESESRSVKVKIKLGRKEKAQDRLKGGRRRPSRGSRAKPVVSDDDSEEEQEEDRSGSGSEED

Molecular target: hypoxia-inducible factor 1 alpha (HIF-1α) (mouse (endogenous in primary murine hepatocytes)) (UniProt Q61221)
Assay: Re-ChIP (ChIP-on-ChIP, sequential chromatin immunoprecipitation); primary murine hepatocytes treated with HGF and harvested at indicated time points; chromatin cross-linked with 1% formaldehyde; sequential precipitation with indicated antibodies; Chka promoter DNA amplified

binding: binds
Substance: Brahma-related gene 1 (Brg1) (from UniProt Q3TKT4 1-1613)
